The supplement of paper PMC10849652
Some of the results follow.

Amino acid sequences for entries named in this document (tags omitted). A change or cut given only in a name is not applied to a line headed by its entry.
UniProt Q9NXD2: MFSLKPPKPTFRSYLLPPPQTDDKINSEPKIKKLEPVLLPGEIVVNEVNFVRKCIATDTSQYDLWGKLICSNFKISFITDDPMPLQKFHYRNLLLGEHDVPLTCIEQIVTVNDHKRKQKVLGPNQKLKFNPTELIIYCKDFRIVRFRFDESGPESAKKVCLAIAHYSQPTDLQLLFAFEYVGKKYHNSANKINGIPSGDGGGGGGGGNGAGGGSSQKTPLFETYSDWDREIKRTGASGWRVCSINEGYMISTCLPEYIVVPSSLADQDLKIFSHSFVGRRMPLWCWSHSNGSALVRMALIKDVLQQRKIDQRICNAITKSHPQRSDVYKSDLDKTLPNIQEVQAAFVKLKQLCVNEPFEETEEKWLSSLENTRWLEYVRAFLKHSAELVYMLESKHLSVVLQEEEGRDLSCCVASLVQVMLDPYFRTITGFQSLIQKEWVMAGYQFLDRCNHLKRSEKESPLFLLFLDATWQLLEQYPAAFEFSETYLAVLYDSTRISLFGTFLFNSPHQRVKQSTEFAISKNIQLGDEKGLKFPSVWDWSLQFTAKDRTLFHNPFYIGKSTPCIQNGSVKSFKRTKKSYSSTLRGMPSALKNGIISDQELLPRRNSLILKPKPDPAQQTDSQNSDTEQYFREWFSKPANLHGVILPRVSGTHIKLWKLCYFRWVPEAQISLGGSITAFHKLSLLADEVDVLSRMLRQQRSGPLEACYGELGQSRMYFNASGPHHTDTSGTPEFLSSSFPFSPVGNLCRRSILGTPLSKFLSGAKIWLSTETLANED
UniProt P03897, whole entry, looked up: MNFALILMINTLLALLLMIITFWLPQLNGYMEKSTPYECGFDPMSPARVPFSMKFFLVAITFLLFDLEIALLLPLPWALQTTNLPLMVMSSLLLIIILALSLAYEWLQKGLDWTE
UniProt Q9BT17: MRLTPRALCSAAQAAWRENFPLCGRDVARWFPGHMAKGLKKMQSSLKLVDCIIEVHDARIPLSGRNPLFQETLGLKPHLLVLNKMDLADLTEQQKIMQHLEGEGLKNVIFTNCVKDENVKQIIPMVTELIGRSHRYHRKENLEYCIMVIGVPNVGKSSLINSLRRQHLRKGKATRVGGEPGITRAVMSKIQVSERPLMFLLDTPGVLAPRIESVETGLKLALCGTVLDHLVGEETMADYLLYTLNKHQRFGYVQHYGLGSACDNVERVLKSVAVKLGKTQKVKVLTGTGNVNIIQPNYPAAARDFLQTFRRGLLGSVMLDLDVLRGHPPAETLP
UniProt Q9NVV4: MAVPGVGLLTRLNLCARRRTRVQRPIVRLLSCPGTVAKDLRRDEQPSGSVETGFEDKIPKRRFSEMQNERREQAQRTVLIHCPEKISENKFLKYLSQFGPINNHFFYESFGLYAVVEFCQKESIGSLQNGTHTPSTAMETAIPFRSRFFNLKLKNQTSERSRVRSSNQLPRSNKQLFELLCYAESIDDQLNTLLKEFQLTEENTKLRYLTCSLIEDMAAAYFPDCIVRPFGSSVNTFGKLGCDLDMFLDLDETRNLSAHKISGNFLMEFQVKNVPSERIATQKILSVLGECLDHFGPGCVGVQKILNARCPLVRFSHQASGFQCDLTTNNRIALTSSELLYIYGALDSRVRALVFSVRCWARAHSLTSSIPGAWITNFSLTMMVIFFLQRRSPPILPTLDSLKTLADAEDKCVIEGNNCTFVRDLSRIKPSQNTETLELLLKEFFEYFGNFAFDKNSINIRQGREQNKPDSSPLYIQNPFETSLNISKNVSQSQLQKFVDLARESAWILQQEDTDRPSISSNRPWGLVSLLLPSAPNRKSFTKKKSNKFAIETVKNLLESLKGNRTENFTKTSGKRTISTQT
UniProt Q93083: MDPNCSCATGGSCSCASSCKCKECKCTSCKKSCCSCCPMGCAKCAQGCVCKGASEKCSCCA
UniProt O75570: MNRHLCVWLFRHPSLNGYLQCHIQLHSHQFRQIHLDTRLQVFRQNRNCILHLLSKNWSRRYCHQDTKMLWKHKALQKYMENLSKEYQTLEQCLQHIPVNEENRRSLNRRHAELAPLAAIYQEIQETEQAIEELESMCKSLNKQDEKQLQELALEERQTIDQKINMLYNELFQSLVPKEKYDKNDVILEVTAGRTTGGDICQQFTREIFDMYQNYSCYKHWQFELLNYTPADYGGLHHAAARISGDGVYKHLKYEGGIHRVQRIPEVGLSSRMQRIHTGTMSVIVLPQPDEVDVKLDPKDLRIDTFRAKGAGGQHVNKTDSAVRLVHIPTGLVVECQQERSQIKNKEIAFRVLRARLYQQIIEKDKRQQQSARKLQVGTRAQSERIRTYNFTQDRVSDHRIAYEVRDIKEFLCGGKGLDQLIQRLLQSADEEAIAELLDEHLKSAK
UniProt Q49AM1: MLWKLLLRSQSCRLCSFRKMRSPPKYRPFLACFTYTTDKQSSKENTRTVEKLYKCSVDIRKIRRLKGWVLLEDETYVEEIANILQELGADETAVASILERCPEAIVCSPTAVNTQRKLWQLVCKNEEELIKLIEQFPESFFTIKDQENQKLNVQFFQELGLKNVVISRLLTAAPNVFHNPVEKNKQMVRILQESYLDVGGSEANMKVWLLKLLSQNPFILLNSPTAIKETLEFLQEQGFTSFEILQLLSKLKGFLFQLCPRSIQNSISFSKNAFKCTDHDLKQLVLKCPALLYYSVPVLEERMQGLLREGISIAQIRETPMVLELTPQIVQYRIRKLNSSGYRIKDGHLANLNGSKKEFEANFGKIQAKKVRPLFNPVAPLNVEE
UniProt Q6P1R3: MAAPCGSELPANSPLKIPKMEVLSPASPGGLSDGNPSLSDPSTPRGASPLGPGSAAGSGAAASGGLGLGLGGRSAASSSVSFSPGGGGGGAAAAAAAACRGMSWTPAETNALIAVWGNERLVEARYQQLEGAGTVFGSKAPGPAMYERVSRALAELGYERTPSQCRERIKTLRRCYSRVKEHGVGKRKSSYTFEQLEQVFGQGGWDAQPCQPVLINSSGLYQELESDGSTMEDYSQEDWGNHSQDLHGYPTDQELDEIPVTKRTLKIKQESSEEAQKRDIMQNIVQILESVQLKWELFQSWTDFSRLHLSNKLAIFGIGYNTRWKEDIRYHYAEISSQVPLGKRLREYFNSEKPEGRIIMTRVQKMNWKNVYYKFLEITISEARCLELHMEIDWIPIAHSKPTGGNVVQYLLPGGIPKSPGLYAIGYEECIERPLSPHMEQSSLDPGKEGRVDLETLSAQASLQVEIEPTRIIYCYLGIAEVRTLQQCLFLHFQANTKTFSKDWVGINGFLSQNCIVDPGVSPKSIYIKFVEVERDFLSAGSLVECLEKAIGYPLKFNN
UniProt Q2M296: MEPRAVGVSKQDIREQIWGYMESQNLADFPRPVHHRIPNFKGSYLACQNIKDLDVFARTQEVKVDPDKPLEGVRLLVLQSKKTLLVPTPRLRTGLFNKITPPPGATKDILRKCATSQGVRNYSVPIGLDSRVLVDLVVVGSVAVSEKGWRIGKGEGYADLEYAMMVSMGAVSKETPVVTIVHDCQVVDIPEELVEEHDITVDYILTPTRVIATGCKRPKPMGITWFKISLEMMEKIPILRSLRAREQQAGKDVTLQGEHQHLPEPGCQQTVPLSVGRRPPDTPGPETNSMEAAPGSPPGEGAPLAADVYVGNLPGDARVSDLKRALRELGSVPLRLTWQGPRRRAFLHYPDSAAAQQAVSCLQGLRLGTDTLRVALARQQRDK
UniProt Q9NYA4: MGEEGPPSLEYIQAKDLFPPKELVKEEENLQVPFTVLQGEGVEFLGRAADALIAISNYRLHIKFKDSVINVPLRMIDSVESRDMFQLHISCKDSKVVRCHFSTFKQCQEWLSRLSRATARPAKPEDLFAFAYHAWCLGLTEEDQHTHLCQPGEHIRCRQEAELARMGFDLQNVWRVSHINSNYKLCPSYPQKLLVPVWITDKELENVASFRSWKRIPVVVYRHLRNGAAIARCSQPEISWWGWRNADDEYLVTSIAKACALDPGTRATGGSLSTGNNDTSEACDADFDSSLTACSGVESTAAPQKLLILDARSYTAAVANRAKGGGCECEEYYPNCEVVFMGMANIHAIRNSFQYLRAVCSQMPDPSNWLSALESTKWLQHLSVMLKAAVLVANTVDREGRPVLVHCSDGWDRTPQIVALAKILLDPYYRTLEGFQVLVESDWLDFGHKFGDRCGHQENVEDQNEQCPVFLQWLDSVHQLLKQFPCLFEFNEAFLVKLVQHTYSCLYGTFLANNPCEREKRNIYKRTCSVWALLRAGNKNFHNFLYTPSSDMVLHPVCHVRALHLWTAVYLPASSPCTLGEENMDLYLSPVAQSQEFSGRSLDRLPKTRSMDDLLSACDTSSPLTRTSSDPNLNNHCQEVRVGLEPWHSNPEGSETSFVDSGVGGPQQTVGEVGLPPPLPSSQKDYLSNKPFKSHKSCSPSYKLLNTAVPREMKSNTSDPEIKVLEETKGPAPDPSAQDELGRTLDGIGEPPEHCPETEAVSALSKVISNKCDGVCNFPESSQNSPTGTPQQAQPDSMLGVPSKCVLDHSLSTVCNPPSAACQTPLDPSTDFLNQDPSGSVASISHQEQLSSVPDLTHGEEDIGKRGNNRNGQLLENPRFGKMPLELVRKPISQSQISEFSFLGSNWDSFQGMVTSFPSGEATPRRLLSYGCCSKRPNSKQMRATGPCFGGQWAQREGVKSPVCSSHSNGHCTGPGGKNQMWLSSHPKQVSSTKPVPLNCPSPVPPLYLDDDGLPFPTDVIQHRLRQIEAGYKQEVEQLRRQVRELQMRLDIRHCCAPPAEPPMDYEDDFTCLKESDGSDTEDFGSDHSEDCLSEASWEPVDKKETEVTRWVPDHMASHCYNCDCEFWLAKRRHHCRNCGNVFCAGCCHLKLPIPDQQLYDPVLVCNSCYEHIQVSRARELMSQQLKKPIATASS
UniProt P00414, whole entry, looked up: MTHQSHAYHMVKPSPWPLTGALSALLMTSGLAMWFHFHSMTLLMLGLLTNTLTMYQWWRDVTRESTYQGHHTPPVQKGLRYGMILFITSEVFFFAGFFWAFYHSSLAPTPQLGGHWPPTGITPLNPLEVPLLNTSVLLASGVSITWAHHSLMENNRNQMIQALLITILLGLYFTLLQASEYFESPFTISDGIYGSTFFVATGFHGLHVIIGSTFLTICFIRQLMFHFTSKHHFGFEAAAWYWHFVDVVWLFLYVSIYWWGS
UniProt Q14872: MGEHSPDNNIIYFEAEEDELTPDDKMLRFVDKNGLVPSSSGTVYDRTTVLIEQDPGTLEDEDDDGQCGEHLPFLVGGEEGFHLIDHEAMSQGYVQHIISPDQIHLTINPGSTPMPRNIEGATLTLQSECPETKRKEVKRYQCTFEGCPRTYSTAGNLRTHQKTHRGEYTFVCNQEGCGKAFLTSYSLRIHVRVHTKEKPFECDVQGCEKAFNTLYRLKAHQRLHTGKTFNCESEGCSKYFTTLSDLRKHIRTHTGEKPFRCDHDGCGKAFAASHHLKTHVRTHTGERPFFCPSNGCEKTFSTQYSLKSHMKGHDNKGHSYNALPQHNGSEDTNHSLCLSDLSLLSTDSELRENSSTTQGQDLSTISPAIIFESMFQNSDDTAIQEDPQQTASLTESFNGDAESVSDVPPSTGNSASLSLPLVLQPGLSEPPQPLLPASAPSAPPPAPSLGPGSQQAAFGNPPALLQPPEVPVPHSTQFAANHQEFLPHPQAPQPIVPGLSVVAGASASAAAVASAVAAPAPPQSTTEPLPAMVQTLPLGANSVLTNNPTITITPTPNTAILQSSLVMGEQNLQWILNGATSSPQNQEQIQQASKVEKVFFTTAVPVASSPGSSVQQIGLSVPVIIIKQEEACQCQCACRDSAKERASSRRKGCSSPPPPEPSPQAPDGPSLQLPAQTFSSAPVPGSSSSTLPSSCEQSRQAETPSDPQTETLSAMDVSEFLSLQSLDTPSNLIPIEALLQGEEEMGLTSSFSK

Experiments:
Assay in all cases: log2 fold change, soluble protein after heating vs DMSO (PISA); higher = thermal stabilisation; K562 lysate, 10 uM; active = over 0.2 and 3.5 SD of the protein, either way, in both replicates (recomputed)
[1] = compound: CS(=O)(=O)CCNCc1ccc(-c2ccc3ncnc(Nc4ccc(OCc5cccc(F)c5)c(Cl)c4)c3c2)o1 [lapatinib]
Outline: (§1)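 K562 pellets were dounce-homogenised in PBS pH 7.4 containing 1 mM MgCl2, and the crude extract, at 1 mg/mL protein, was exposed to 10 μM compound for 30 min. Aliquots were heated for 3 min across 48°C-58°C, pooled, brought to 0.5% NP-40 at 4°C and spun at 21,000xg for 90 min, with the supernatant taken as soluble protein. TMTpro 16plex LC-MS/MS with equalised channel sums quantified that protein. Values are log-two fold changes in thermal stability relative to solvent controls, taken from duplicates.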

[2] = compound: C[C@@H](Oc1cc(-c2cnn(C3CCNCC3)c2)cnc1N)c1c(Cl)ccc(F)c1Cl [crizotinib]
Outline: as §1

[3] = compound: C[C@H](Nc1ncnc2nc[nH]c12)c1cc2cccc(Cl)c2c(=O)n1-c1ccccc1 [duvelisib]
Outline: as §1

[4] = compound: Cc1ccc(-n2nc(C(C)(C)C)cc2NC(=O)Nc2ccc(OCCN3CCOCC3)c3ccccc23)cc1 [doramapimod]
Outline: as §1

[5] = compound: Cc1cn(-c2cc(NC(=O)c3ccc(C)c(Nc4nccc(-c5cccnc5)n4)c3)cc(C(F)(F)F)c2)cn1 [nilotinib]
Outline: as §1

[6] = compound: Cc1nc(Nc2n[nH]c3c2CN(C(=O)N[C@H](CN(C)C)c2ccccc2)C3(C)C)c2sccc2n1
Outline: as §1

[7] = compound: Cc1nc(Nc2ncc(C(=O)Nc3c(C)cccc3Cl)s2)cc(N2CCN(CCO)CC2)n1 [dasatinib]
Outline: as §1

[8] = compound: Cc1ncc(-c2ccnc(Nc3ccc(S(C)(=O)=O)cc3)n2)n1C(C)C
Outline: as §1

[9] = compound: Cn1cc(-c2ccc3c(c2)CCN3C(=O)Cc2cccc(C(F)(F)F)c2)c2c(N)ncnc21
Outline: as §1

[10] = compound: Cn1cc(CNCC2CCN(c3ncc(C(=O)NO)cn3)CC2)c2ccccc21 [quisinostat]
Outline: as §1

[11] = compound: Cn1cncc1[C@@](N)(c1ccc(Cl)cc1)c1ccc2c(c1)c(-c1cccc(Cl)c1)cc(=O)n2C [tipifarnib]
Outline: as §1

[12] = compound: NC(=O)Nc1cc(-c2cccc(F)c2)sc1C(=O)N[C@H]1CCCNC1
Outline: as §1

[13] = compound: NC(=O)c1cnc(N[C@@H]2CCCC[C@@H]2N)nc1Nc1cccc(-n2nccn2)c1
Outline: as §1

[14] = compound: NC1(c2ccc(-c3nc4ccn5c(=O)[nH]nc5c4cc3-c3ccccc3)cc2)CCC1
Outline: as §1

[15] = compound: CS(=O)(=O)N1CCN(Cc2cc3nc(-c4cccc5[nH]ncc45)nc(N4CCOCC4)c3s2)CC1 [pictilisib]
Outline: as §1

[16] = compound: C[C@H](C1=CC=C(C=C1)C(=O)NC2=C3C=CNC3=NC=C2)N
Outline: as §1

[17] = compound: Cc1cc(Nc2cc(CN3CCOCC3)c3nc(C)c(Cc4ccc(Cl)cc4F)n3n2)n[nH]1 [gandotinib]
Outline: as §1

[18] = compound: Cc1cc(Nc2cc(N3CCN(C)CC3)nc(Sc3ccc(NC(=O)C4CC4)cc3)n2)n[nH]1 [tozasertib]
Outline: as §1

[19] = compound: Cc1ccc(NC(=O)c2ccc(CN3CC[C@H](N(C)C)C3)c(C(F)(F)F)c2)cc1Nc1nccc(-c2cncnc2)n1 [bafetinib]
Outline: as §1

[20] = compound: Cc1cccc(CC(=O)N2CCc3c2ccc(-c2cn(C)c4ncnc(N)c24)c3F)n1
Outline: as §1

MTMR10 (UniProt Q9NXD2)
log2 fold change [1]: inactive: -0.086 | log2 fold change [2]: inactive: 0.041 | log2 fold change [3]: inactive: 0.058 | log2 fold change [4]: inactive: 0.008 | log2 fold change [5]: inactive: -0.168 | log2 fold change [6]: inactive: 0.019 | log2 fold change [7]: inactive: 0.074 | log2 fold change [8]: inactive: 0.017 | log2 fold change [9]: inactive: -0.141 | log2 fold change [10]: inactive: 0.004 | log2 fold change [11]: inactive: -0.038 | log2 fold change [12]: inactive: 0.094 | log2 fold change [13]: inactive: 0.051 | log2 fold change [14]: inactive: 0.07

MT-ND3 (UniProt P03897)
log2 fold change [1]: inactive: 0.156 | log2 fold change [15]: inactive: -0.021 | log2 fold change [2]: inactive: 0.033 | log2 fold change [16]: inactive: 0.036 | log2 fold change [17]: inactive: -0.015 | log2 fold change [18]: inactive: 0.036 | log2 fold change [4]: inactive: -0.134 | log2 fold change [19]: inactive: -0.136 | log2 fold change [20]: inactive: 0.01 | log2 fold change [5]: inactive: 0.165 | log2 fold change [6]: inactive: 0.076 | log2 fold change [8]: inactive: -0.382 | log2 fold change [10]: inactive: 0.244 | log2 fold change [11]: inactive: -0.154 | log2 fold change [12]: inactive: -0.052 | log2 fold change [13]: inactive: -0.412 | log2 fold change [14]: inactive: 0.032

MTG1 (UniProt Q9BT17)
log2 fold change [16]: inactive: 0.014 | log2 fold change [17]: inactive: 0.004 | log2 fold change [20]: inactive: 0.16 | log2 fold change [5]: inactive: -0.057 | log2 fold change [6]: inactive: 0.224 | log2 fold change [8]: inactive: 0.129 | log2 fold change [11]: inactive: -0.076

MTPAP (UniProt Q9NVV4)
log2 fold change [1]: inactive: -0.107 | log2 fold change [2]: inactive: -0.044 | log2 fold change [16]: inactive: 0.039 | log2 fold change [3]: inactive: -0.006 | log2 fold change [17]: inactive: -0.014 | log2 fold change [18]: inactive: 0.028 | log2 fold change [4]: inactive: 0.084 | log2 fold change [20]: inactive: -0.085 | log2 fold change [5]: inactive: -0.035 | log2 fold change [6]: inactive: 0.012 | log2 fold change [7]: inactive: -0.063 | log2 fold change [8]: inactive: 0.012 | log2 fold change [9]: inactive: 0.093 | log2 fold change [10]: inactive: 0.04 | log2 fold change [11]: inactive: 0.071 | log2 fold change [12]: inactive: -0.003 | log2 fold change [13]: inactive: -0.005 | log2 fold change [14]: inactive: 0.02

MT1L (UniProt Q93083)
log2 fold change [15]: inactive: 0.378 | log2 fold change [2]: inactive: -0.066 | log2 fold change [16]: inactive: 0.014 | log2 fold change [17]: inactive: -0.004 | log2 fold change [4]: inactive: -0.071 | log2 fold change [19]: inactive: 0.003 | log2 fold change [20]: inactive: -0.074 | log2 fold change [10]: inactive: 0.145 | log2 fold change [12]: inactive: -0.037

MTRF1 isoform 2 (UniProt O75570)
log2 fold change [2]: inactive: 0.051 | log2 fold change [16]: inactive: 0.232 | log2 fold change [17]: inactive: -0.192 | log2 fold change [4]: inactive: 0.035 | log2 fold change [20]: inactive: 0.272 | log2 fold change [10]: inactive: -0.133 | log2 fold change [12]: inactive: -0.105

MTERF2 (UniProt Q49AM1)
log2 fold change [2]: inactive: 0.034 | log2 fold change [3]: inactive: 0.051 | log2 fold change [18]: inactive: -0.024 | log2 fold change [4]: inactive: -0.065 | log2 fold change [7]: inactive: 0.015 | log2 fold change [9]: inactive: -0.046 | log2 fold change [10]: inactive: 0.144 | log2 fold change [12]: inactive: -0.196 | log2 fold change [14]: inactive: -0.094

MSANTD2 (UniProt Q6P1R3)
log2 fold change [2]: inactive: 0.001 | log2 fold change [16]: inactive: -0.166 | log2 fold change [3]: inactive: -0.032 | log2 fold change [17]: inactive: 0.163 | log2 fold change [18]: inactive: -0.067 | log2 fold change [4]: inactive: -0.083 | log2 fold change [20]: inactive: -0.099 | log2 fold change [7]: inactive: -0.136 | log2 fold change [9]: inactive: -0.011 | log2 fold change [10]: inactive: -0.01 | log2 fold change [12]: inactive: -0.059 | log2 fold change [14]: inactive: 0.013

MTHFSD (UniProt Q2M296)
log2 fold change [1]: inactive: 0.016 | log2 fold change [15]: inactive: -0.037 | log2 fold change [2]: inactive: -0.052 | log2 fold change [3]: inactive: -0.062 | log2 fold change [18]: inactive: 0.014 | log2 fold change [4]: inactive: 0.014 | log2 fold change [19]: inactive: 0.003 | log2 fold change [5]: inactive: -0.014 | log2 fold change [6]: inactive: 0.052 | log2 fold change [7]: inactive: -0.05 | log2 fold change [8]: inactive: 0.018 | log2 fold change [9]: inactive: 0.269 | log2 fold change [10]: inactive: 0.078 | log2 fold change [11]: inactive: -0.042 | log2 fold change [12]: inactive: -0.053 | log2 fold change [13]: inactive: 0.007 | log2 fold change [14]: inactive: 0.104

MRPL24 (UniProt Q96A35)
log2 fold change [1]: inactive: 0.037 | log2 fold change [2]: inactive: -0.114 | log2 fold change [16]: inactive: 0.037 | log2 fold change [3]: inactive: 0.012 | log2 fold change [17]: inactive: -0.071 | log2 fold change [18]: inactive: 0.07 | log2 fold change [4]: inactive: 0.037 | log2 fold change [20]: inactive: -0.034 | log2 fold change [5]: inactive: 0.045 | log2 fold change [6]: inactive: -0.016 | log2 fold change [7]: inactive: 0.026 | log2 fold change [8]: inactive: 0.025 | log2 fold change [9]: inactive: 0.04 | log2 fold change [10]: inactive: -0.056 | log2 fold change [11]: inactive: 0.049 | log2 fold change [12]: inactive: -0.009 | log2 fold change [13]: inactive: 0.014 | log2 fold change [14]: inactive: -0.066

MTURN (UniProt Q8N3F0)
log2 fold change [2]: inactive: -0.05 | log2 fold change [3]: inactive: -0.015 | log2 fold change [18]: inactive: 0.061 | log2 fold change [4]: inactive: 0.006 | log2 fold change [7]: inactive: 0.051 | log2 fold change [9]: inactive: 0.027 | log2 fold change [10]: inactive: 0.014 | log2 fold change [12]: inactive: 0.015

MTMR4 (UniProt Q9NYA4)
log2 fold change [1]: inactive: 0.019 | log2 fold change [2]: inactive: -0.088 | log2 fold change [16]: inactive: -0.078 | log2 fold change [3]: inactive: 0.01 | log2 fold change [17]: inactive: 0.025 | log2 fold change [4]: inactive: -0.106 | log2 fold change [20]: inactive: 0.113 | log2 fold change [5]: inactive: -0.068 | log2 fold change [6]: inactive: 0.025 | log2 fold change [7]: inactive: -0.051 | log2 fold change [8]: inactive: -0.106 | log2 fold change [9]: inactive: 0.017 | log2 fold change [10]: inactive: 0.027 | log2 fold change [11]: inactive: 0.091 | log2 fold change [12]: inactive: 0.131 | log2 fold change [13]: inactive: -0.025 | log2 fold change [14]: inactive: 0.146

MRPS2 (UniProt Q9Y399)
log2 fold change [1]: inactive: 0.013 | log2 fold change [2]: inactive: 0.022 | log2 fold change [16]: inactive: 0.096 | log2 fold change [3]: inactive: 0.015 | log2 fold change [17]: inactive: -0.036 | log2 fold change [18]: inactive: 0.097 | log2 fold change [4]: inactive: 0.037 | log2 fold change [20]: inactive: -0.017 | log2 fold change [5]: inactive: -0.05 | log2 fold change [6]: inactive: -0.057 | log2 fold change [7]: inactive: -0.003 | log2 fold change [8]: inactive: -0.117 | log2 fold change [9]: inactive: 0.075 | log2 fold change [10]: inactive: 0.024 | log2 fold change [11]: inactive: 0.009 | log2 fold change [12]: inactive: 0.062 | log2 fold change [13]: inactive: 0.02 | log2 fold change [14]: inactive: 0.05

MT-CO3 (UniProt P00414)
log2 fold change [16]: inactive: -0.368 | log2 fold change [3]: inactive: -0.13 | log2 fold change [17]: inactive: 0.141 | log2 fold change [20]: inactive: 0.187 | log2 fold change [7]: inactive: -0.095 | log2 fold change [9]: inactive: -0.469

MUC5AC (UniProt P98088)
log2 fold change [5]: inactive: 0.02 | log2 fold change [6]: inactive: 0.048 | log2 fold change [8]: inactive: 0.128 | log2 fold change [11]: active: -0.593

MTF1 (UniProt Q14872)
log2 fold change [16]: inactive: 0.248 | log2 fold change [17]: inactive: -0.035 | log2 fold change [20]: inactive: -0.189

MSH5 isoform 3 (UniProt O43196)
log2 fold change [1]: inactive: -0.068 | log2 fold change [2]: inactive: -0.287 | log2 fold change [3]: inactive: 0.197 | log2 fold change [18]: inactive: 0.629 | log2 fold change [4]: inactive: 0.296 | log2 fold change [7]: inactive: -0.077 | log2 fold change [9]: inactive: 0.304 | log2 fold change [10]: inactive: -0.554 | log2 fold change [12]: inactive: 0.037 | log2 fold change [13]: inactive: 0.082
